No constants are given. Whether binding was seen depends on the method and setting. In cells and extracts the contact can be indirect. Some binding calls cover weakened binding; strength is not graded here. For some assays here: Where a sequence is shown, tags or fusion partners need not be part of it. Blank lines part the entries; values can stand above or below the molecule they belong to.
How the values were obtained:
Assay in all cases: co-IP; anti-FLAG M2 beads on lysates of transfected HEK293T cells, eluted with SDS loading buffer, western blot; lysates with or without RNase A (40 μg/ml); in some panels cells also given siRNA against β-globin, DDX6, UNR or unrip, or co-transfected with HA-DDX6
FLAG-4E-T 1-900 (human) = molecular target: T1, FLAG-4E-T 1-900 (human) (UniProt Q9NRA8)
T1 sequence: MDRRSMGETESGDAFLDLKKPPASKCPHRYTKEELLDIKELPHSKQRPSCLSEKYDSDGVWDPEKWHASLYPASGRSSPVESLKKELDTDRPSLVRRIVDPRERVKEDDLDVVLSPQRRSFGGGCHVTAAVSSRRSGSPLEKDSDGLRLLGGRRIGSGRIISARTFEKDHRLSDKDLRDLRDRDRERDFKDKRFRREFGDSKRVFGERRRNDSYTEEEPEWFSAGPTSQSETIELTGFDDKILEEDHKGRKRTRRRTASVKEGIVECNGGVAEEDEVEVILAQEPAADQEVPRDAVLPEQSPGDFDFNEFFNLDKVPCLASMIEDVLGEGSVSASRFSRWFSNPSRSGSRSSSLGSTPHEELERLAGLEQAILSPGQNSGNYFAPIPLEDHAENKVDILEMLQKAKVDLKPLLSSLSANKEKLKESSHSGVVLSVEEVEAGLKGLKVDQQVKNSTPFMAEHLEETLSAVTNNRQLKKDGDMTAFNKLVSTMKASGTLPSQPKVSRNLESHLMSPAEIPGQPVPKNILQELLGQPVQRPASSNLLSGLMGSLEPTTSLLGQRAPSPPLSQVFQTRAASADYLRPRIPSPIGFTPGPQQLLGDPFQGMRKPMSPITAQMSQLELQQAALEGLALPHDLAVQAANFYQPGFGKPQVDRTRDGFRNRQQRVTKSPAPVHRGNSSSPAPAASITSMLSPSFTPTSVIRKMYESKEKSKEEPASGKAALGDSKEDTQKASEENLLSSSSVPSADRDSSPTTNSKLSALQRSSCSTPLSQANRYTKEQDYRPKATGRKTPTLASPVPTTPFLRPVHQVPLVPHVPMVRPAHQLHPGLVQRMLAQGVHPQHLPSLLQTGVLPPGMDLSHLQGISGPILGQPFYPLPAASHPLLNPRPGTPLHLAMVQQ

Sequences of proteins named here, by UniProt entry; tags and fusion partners are left off.
UniProt P26196: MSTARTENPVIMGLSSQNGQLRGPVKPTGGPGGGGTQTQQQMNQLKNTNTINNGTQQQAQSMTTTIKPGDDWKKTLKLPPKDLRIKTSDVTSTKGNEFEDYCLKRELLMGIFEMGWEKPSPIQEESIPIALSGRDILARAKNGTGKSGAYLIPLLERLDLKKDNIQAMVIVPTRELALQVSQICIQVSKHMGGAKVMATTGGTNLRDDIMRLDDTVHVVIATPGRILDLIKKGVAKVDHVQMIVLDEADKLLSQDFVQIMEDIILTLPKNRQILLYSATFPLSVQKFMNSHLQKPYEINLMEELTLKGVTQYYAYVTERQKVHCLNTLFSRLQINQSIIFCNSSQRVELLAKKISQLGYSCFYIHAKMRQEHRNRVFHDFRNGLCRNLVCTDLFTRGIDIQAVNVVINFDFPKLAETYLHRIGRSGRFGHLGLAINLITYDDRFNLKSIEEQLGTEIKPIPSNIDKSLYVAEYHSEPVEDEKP
UniProt Q8ND56: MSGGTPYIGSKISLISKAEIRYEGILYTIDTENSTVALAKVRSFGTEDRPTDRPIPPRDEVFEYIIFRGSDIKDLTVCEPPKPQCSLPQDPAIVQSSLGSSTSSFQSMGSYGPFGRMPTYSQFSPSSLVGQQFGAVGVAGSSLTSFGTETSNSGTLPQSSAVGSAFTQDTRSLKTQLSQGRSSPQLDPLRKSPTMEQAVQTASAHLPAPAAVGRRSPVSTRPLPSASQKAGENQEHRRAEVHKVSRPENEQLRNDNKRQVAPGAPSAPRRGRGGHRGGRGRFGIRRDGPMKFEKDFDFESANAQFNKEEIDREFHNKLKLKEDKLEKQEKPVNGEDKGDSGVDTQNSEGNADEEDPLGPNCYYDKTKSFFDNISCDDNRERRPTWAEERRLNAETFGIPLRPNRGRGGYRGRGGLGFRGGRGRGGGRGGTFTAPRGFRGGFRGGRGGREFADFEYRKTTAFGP

FLAG-DDX6 (human) = FLAG-DDX6 (human) (UniProt P26196)
FLAG-unrip (human) = molecular target: T2, FLAG-unrip (human) (UniProt Q9Y3F4)
T2 sequence: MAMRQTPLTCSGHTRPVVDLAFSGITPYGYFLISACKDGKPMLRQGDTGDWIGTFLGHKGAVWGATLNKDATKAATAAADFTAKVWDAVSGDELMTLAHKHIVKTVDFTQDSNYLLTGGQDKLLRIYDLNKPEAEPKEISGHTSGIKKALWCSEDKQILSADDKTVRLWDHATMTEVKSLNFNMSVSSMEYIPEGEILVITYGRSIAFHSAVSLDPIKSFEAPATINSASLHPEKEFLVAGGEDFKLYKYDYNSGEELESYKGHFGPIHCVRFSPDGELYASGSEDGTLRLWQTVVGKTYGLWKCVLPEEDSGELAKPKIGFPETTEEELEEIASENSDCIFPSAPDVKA

[1] = molecular target: T3, FLAG-UNRΔC (UNR1-744) (human) (UniProt O75534)
T3 sequence: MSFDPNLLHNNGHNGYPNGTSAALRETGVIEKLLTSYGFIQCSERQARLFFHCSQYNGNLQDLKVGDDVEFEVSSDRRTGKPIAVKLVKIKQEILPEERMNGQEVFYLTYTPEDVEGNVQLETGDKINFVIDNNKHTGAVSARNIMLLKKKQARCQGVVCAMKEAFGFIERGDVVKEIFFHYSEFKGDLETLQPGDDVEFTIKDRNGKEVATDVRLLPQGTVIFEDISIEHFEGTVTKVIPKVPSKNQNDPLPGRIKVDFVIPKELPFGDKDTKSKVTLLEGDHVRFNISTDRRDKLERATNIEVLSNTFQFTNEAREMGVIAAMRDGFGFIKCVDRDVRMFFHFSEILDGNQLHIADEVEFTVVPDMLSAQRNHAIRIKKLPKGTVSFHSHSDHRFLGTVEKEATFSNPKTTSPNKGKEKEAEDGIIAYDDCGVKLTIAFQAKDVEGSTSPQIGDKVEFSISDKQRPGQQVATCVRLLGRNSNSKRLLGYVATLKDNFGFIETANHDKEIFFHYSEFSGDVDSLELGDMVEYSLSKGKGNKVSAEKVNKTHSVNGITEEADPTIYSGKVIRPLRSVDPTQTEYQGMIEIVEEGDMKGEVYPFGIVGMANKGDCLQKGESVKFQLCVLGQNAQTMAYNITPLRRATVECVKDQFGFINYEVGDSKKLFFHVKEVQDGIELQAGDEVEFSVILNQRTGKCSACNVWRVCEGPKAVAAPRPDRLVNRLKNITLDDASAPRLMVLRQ

binding (FLAG-4E-T 1-900 (human)): binds | binding (FLAG-DDX6 (human)): binds | binding (FLAG-unrip (human)): binds
Molecule: LSM14A, endogenous (from UniProt Q8ND56 1-463)

binding [1]: binds
B1: CNOT4, endogenous (protein, UniProt O95628 1-575)
chain: MSRSPDAKEDPVECPLCMEPLEIDDINFFPCTCGYQICRFCWHRIRTDENGLCPACRKPYPEDPAVYKPLSQEELQRIKNEKKQKQNERKQKISENRKHLASVRVVQKNLVFVVGLSQRLADPEVLKRPEYFGKFGKIHKVVINNSTSYAGSQGPSASAYVTYIRSEDALRAIQCVNNVVVDGRTLKASLGTTKYCSYFLKNMQCPKPDCMYLHELGDEAASFTKEEMQAGKHQEYEQKLLQELYKLNPNFLQLSTGSVDKNKNKVTPLQRYDTPIDKPSDSLSIGNGDNSQQISNSDTPSPPPGLSKSNPVIPISSSNHSARSPFEGAVTESQSLFSDNFRHPNPIPSGLPPFPSSPQTSSDWPTAPEPQSLFTSETIPVSSSTDWQAAFGFGSSKQPEDDLGFDPFDVTRKALADLIEKELSVQDQPSLSPTSLQNSSSHTTTAKGPGSGFLHPAAATNANSLNSTFSVLPQRFPQFQQHRAVYNSFSFPGQAARYPWMAFPRNSIMHLNHTANPTSNSNFLDLNLPPQHNTGLGGIPVAGEEEVKVSTMPLSTSSHSLQQGQQPTSLHTTVA

binding (FLAG-DDX6 (human)): binds
B2: PAT1B, endogenous (protein, UniProt Q86TB9 1-770)
chain: MFRYESLEDCPLDEDEDAFQGLGEEDEEIDQFNDDTFGSGAVDDDWQEAHERLAELEEKLPVAVNEQTGNGERDEMDLLGDHEENLAERLSKMVIENELEDPAIMRAVQTRPVLQPQPGSLNSSIWDGSEVLRRIRGPLLAQEMPTVSVLEYALPQRPPQGPEDDRDLSERALPRRSTSPIIGSPPVRAVPIGTPPKQMAVPSFTQQILCPKPVHVRPPMPPRYPAPYGERMSPNQLCSVPNSSLLGHPFPPSVPPVLSPLQRAQLLGGAQLQPGRMSPSQFARVPGFVGSPLAAMNPKLLQGRVGQMLPPAPGFRAFFSAPPSATPPPQQHPPGPGPHLQNLRSQAPMFRPDTTHLHPQHRRLLHQRQQQNRSQHRNLNGAGDRGSHRSSHQDHLRKDPYANLMLQREKDWVSKIQMMQLQSTDPYLDDFYYQNYFEKLEKLSAAEEIQGDGPKKERTKLITPQVAKLEHAYKPVQFEGSLGKLTVSSVNNPRKMIDAVVTSRSEDDETKEKQVRDKRRKTLVIIEKTYSLLLDVEDYERRYLLSLEEERPALMDDRKHKICSMYDNLRGKLPGQERPSDDHFVQIMCIRKGKRMVARILPFLSTEQAADILMTTARNLPFLIKKDAQDEVLPCLLSPFSLLLYHLPSVSITSLLRQLMNLPQSAATPALSNPHLTAVLQNKFGLSLLLILLSRGEDLQSSDPATESTQNNQWTEVMFMATRELLRIPQAALAKPISIPTNLVSLFSRYVDRQKLNLLETKLQLVQGIR

— paper PMC5291280
